Data from PMC3830522.
Results are given in words; binding and its absence hold for the method and conditions named. In cells and extracts the contact can be indirect. For some of these results: A result given as binding can be weak or reduced; the word gives no strength.

Experiments:
[1] = molecular target: T1, NBR1-derived UBA domain on agarose beads (UniProt Q14596); assay: pull-down; only the target purified
T1 sequence: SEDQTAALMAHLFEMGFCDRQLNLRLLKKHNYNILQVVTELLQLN

[2] = molecular target: N123S LHBs mutation protein (Hepatitis B virus (subtype B)); assay: co-IP
[3] = molecular target: N177S LHBs mutation protein (Hepatitis B virus (subtype B)); assay: co-IP
[4] = molecular target: N320K LHBs mutation protein (Hepatitis B virus (subtype B)); assay: co-IP
[5] = molecular target: LHBs (large surface protein of HBV) (Hepatitis B virus (subtype B)); assay: co-IP
[6] = molecular target: N15S LHBs mutation protein (Hepatitis B virus (subtype B)); assay: co-IP

Question: For “LHBs (large surface protein of HBV) (Hepatitis B virus (subtype B))”, which binding [1] is on record?
Answer: no binding

Question: For “N15S LHBs mutation protein (Hepatitis B virus (subtype B))”, which binding [1] is on record?
Answer: no binding

Question: Which binding [1] does the source give for “N123S LHBs mutation protein (Hepatitis B virus (subtype B))” here?
Answer: no binding

Question: With “N177S LHBs mutation protein (Hepatitis B virus (subtype B))” as the molecule, how does the binding [1] read?
Answer: no binding

Question: “N320K LHBs mutation protein (Hepatitis B virus (subtype B))” was tested. Which binding [1] did it give?
Answer: no binding

B1: EDEM (ER degradation-enhancing α-mannosidase-like protein) (protein, UniProt Q92611 1-657)
chain: MQWRALVLGLVLLRLGLHGVLWLVFGLGPSMGFYQRFPLSFGFQRLRSPDGPASPTSGPVGRPGGVSGPSWLQPPGTGAAQSPRKAPRRPGPGMCGPANWGYVLGGRGRGPDEYEKRYSGAFPPQLRAQMRDLARGMFVFGYDNYMAHAFPQDELNPIHCRGRGPDRGDPSNLNINDVLGNYSLTLVDALDTLAIMGNSSEFQKAVKLVINTVSFDKDSTVQVFEATIRVLGSLLSAHRIITDSKQPFGDMTIKDYDNELLYMAHDLAVRLLPAFENTKTGIPYPRVNLKTGVPPDTNNETCTAGAGSLLVEFGILSRLLGDSTFEWVARRAVKALWNLRSNDTGLLGNVVNIQTGHWVGKQSGLGAGLDSFYEYLLKSYILFGEKEDLEMFNAAYQSIQNYLRRGREACNEGEGDPPLYVNVNMFSGQLMNTWIDSLQAFFPGLQVLIGDVEDAICLHAFYYAIWKRYGALPERYNWQLQAPDVLFYPLRPELVESTYLLYQATKNPFYLHVGMDILQSLEKYTKVKCGYATLHHVIDKSTEDRMESFFLSETCKYLYLLFDEDNPVHKSGTRYMFTTEGHIVSVDEHLRELPWKEFFSEEGGQDQGGKSVHRPKPHELKVINSSSNCNRVPDERRYSLPLKSIYMRQIDQMVGLI
Question: How did the binding [2] turn out when B1 was run?
Answer: binds

Question: And the binding [3]?
Answer: binds

Question: What about the binding [4] of the same molecule?
Answer: binds

Question: And the binding [5]?
Answer: no binding

Question: What about the binding [6] of the same molecule?
Answer: binds
